Laboratory results as given in article PMC10235086.

Amino acid sequences for entries named in this document (tags omitted).
UniProt P47037: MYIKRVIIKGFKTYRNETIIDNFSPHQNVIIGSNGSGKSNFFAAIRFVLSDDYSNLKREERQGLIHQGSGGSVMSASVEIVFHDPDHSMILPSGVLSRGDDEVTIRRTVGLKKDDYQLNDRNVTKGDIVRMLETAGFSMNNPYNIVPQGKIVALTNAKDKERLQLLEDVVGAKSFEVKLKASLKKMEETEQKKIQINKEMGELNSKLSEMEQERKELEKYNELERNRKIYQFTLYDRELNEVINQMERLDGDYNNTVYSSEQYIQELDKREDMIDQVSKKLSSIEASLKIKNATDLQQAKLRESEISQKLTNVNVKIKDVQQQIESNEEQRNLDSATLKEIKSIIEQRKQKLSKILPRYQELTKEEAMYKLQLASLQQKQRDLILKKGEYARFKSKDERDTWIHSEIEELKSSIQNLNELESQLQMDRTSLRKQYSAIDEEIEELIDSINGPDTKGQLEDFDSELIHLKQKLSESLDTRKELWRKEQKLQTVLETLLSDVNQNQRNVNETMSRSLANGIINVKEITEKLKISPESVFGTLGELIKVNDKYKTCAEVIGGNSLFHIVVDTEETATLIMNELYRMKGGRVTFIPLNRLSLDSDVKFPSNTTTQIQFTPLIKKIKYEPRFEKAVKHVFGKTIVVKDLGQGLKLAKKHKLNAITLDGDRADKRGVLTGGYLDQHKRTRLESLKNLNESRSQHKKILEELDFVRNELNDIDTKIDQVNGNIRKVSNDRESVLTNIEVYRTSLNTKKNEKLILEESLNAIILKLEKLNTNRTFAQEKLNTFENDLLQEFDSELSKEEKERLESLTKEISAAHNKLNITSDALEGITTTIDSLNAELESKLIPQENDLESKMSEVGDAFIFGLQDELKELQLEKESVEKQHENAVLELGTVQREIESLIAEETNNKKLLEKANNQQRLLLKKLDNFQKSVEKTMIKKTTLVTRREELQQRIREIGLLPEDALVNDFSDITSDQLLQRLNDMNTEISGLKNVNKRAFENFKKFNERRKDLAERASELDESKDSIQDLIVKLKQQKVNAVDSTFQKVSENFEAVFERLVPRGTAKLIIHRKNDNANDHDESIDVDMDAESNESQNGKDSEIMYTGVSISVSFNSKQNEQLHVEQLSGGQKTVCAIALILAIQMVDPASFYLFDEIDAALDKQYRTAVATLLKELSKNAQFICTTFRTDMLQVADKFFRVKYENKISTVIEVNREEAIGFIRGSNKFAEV
UniProt P06701: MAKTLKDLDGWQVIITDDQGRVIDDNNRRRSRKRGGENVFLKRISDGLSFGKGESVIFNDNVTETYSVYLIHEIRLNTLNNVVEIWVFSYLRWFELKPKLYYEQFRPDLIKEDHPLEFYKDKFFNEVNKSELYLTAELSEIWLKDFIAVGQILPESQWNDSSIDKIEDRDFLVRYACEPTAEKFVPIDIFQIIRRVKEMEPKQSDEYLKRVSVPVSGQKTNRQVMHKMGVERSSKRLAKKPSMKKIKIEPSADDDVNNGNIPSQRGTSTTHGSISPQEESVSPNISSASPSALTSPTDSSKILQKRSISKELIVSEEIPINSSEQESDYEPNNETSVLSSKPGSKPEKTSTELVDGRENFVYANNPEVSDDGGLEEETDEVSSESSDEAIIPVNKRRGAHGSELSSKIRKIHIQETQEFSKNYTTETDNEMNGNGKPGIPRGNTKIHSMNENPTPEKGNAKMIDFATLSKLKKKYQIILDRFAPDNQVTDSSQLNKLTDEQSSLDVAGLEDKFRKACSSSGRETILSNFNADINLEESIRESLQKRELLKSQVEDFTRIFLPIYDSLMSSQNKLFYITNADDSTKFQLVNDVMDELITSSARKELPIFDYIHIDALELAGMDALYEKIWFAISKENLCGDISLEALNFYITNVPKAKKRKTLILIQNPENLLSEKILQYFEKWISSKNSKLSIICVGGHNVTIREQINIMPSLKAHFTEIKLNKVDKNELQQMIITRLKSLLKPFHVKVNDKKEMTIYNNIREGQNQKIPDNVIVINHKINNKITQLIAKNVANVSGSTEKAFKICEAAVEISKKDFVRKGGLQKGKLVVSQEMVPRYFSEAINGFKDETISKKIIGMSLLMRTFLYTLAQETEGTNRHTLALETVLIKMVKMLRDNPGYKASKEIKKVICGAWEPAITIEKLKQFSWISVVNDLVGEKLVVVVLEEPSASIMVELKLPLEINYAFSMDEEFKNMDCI
UniProt P06700: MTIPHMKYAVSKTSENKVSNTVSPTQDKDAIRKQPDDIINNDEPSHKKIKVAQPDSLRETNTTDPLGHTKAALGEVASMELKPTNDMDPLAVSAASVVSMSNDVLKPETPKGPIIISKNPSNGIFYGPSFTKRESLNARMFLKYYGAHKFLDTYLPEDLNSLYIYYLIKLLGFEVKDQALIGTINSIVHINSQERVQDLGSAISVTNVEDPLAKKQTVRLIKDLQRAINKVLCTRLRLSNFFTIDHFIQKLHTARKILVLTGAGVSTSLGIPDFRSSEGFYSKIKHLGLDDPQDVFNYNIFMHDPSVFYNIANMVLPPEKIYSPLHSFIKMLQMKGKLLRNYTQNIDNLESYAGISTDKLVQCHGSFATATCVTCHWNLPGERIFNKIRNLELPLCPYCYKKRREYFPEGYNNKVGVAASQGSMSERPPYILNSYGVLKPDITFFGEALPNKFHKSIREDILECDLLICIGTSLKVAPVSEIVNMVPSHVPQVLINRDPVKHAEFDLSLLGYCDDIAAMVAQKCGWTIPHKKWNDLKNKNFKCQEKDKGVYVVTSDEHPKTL
UniProt P22579: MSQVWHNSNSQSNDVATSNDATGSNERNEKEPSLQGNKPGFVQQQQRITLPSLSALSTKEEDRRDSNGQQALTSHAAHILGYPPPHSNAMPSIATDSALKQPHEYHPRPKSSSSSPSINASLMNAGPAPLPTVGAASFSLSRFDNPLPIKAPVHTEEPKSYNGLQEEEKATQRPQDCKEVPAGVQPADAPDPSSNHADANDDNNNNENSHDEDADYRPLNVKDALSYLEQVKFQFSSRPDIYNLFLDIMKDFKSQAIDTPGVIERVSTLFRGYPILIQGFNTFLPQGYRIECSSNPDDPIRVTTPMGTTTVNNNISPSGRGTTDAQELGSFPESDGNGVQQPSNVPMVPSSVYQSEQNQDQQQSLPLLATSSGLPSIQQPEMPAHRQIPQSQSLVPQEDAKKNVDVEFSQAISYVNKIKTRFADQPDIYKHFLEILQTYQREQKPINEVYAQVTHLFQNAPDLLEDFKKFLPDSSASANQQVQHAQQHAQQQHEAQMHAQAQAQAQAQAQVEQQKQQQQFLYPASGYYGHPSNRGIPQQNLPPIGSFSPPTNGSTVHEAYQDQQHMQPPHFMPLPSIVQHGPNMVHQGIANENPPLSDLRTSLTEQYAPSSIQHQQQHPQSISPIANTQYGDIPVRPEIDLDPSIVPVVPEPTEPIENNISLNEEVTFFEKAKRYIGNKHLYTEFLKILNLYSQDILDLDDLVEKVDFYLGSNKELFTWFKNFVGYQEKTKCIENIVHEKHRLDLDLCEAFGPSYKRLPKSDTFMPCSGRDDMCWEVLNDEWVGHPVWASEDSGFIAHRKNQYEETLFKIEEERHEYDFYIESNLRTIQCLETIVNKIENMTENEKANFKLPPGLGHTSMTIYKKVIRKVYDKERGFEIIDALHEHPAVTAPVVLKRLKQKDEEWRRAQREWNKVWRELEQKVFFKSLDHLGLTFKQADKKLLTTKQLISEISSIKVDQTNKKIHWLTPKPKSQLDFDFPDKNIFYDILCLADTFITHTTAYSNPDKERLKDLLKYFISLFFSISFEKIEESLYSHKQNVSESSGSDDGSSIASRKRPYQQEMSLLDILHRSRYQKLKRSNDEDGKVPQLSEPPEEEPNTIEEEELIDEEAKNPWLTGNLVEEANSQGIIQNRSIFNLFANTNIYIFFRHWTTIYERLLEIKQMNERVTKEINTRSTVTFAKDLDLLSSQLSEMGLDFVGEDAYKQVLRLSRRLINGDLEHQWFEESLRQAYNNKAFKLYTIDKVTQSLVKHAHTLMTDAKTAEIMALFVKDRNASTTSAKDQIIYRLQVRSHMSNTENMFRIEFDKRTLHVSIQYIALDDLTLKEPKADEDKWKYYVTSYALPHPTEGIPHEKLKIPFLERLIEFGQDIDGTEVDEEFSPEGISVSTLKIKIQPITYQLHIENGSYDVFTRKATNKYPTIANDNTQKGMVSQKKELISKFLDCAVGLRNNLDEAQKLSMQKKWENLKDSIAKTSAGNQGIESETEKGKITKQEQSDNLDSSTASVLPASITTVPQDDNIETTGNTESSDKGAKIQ

T1: ProteinA-Rio1 (S. cerevisiae) (UniProt Q12196)
T1 sequence: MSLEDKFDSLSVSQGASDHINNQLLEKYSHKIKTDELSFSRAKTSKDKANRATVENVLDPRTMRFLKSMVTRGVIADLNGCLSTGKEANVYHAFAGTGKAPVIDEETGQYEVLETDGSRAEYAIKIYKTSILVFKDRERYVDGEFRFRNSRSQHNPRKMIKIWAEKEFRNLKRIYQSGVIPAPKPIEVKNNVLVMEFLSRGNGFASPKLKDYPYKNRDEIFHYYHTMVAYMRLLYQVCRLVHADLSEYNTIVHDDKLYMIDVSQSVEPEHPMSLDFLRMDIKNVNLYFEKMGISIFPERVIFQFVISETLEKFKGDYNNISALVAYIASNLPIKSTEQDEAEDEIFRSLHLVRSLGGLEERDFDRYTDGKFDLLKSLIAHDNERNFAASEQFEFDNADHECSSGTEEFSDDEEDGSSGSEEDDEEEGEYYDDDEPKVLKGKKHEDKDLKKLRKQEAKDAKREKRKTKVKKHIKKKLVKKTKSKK

B1: Ycg1 (protein, UniProt Q06680 1-1035)
chain: MQDPDGIDINTKIFNSVAEVFQKAQGSYAGHRKHIAVLKKIQSKAVEQGYEDAFNFWFDKLVTKILPLKKNEIIGDRIVKLVAAFIASLERELILAKKQNYKLTNDEEGIFSRFVDQFIRHVLRGVESPDKNVRFRVLQLLAVIMDNIGEIDESLFNLLILSLNKRIYDREPTVRIQAVFCLTKFQDEEQTEHLTELSDNEENFEATRTLVASIQNDPSAEVRRAAMLNLINDNNTRPYILERARDVNIVNRRLVYSRILKSMGRKCFDDIEPHIFDQLIEWGLEDRELSVRNACKRLIAHDWLNALDGDLIELLEKLDVSRSSVCVKAIEALFQSRPDILSKIKFPESIWKDFTVEIAFLFRAIYLYCLDNNITEMLEENFPEASKLSEHLNHYILLRYHHNDISNDSQSHFDYNTLEFIIEQLSIAAERYDYSDEVGRRSMLTVVRNMLALTTLSEPLIKIGIRVMKSLSINEKDFVTMAIEIINDIRDDDIEKQEQEEKIKSKKINRRNETSVDEEDENGTHNDEVNEDEEDDNISSFHSAVENLVQGNGNVSESDIINNLPPEKEASSATIVLCLTRSSYMLELVNTPLTENILIASLMDTLITPAVRNTAPNIRELGVKNLGLCCLLDVKLAIDNMYILGMCVSKGNASLKYIALQVIVDIFSVHGNTVVDGEGKVDSISLHKIFYKVLKNNGLPECQVIAAEGLCKLFLADVFTDDDLFETLVLSYFSPINSSNEALVQAFAFCIPVYCFSHPAHQQRMSRTAADILLRLCVLWDDLQSSVIPEVDREAMLKPNIIFQQLLFWTDPRNLVNQTGSTKKDTVQLTFLIDVLKIYAQIEKKEIKKMIITNINAIFLSSEQDYSTLKELLEYSDDIAENDNLDNVSKNALDKLRNNLNSLIEEINERSETQTKDENNTANDQYSSILGNSFNKSSNDTIEHAADITDGNNTELTKTTVNISAVDNTTEQSNSRKRTRSEAEQIDTSKNLENMSIQDTSTVAKNVSFVLPDEKSDAMSIDEEDKDSESFSEVC
B2: Pat1 (protein, UniProt P25644 1-796)
chain: MSFFGLENSGNARDGPLDFEESYKGYGEHELEENDYLNDETFGDNVQVGTDFDFGNPHSSGSSGNAIGGNGVGATARSYVAATAEGISGPRTDGTAAAGPLDLKPMESLWSTAPPPAMAPSPQSTMAPAPAPQQMAPLQPILSMQDLERQQRQMQQQFMNFHAMGHPQGLPQGPPQQQFPMQPASGQPGPSQFAPPPPPPGVNVNMNQMPMGPVQVPVQASPSPIGMSNTPSPGPVVGATKMPLQSGRRSKRDLSPEEQRRLQIRHAKVEKILKYSGLMTPRDKDFITRYQLSQIVTEDPYNEDFYFQVYKIIQRGGITSESNKGLIARAYLEHSGHRLGGRYKRTDIALQRMQSQVEKAVTVAKERPSKLKDQQAAAGNSSQDNKQANTVLGKISSTLNSKNPRRQLQIPRQQPSDPDALKDVTDSLTNVDLASSGSSSTGSSAAAVASKQRRRSSYAFNNGNGATNLNKSGGKKFILELIETVYEEILDLEANLRNGQQTDSTAMWEALHIDDSSYDVNPFISMLSFDKGIKIMPRIFNFLDKQQKLKILQKIFNELSHLQIIILSSYKTTPKPTLTQLKKVDLFQMIILKIIVSFLSNNSNFIEIMGLLLQLIRNNNVSFLTTSKIGLNLITILISRAALIKQDSSRSNILSSPEISTWNEIYDKLFTSLESKIQLIFPPREYNDHIMRLQNDKFMDEAYIWQFLASLALSGKLNHQRIIIDEVRDEIFATINEAETLQKKEKELSVLPQRSQELDTELKSIIYNKEKLYQDLNLFLNVMGLVYRDGEISELK
B3: Spt6 (protein, UniProt P23615 1-1451)
chain: MEETGDSKLVPRDEEEIVNDNDETKAPSEEEEGEDVFDSSEEDEDIDEDEDEARKVQEGFIVNDDDENEDPGTSISKKRRKHKRREREEDDRLSEDDLDLLMENAGVERTKASSSSGKFKRLKRVGDEGNAAESESDNVAASRQDSTSKLEDFFSEDEEEEESGLRNGRNNEYGRDEEDHENRNRTADKGGILDELDDFIEDDEFSDEDDETRQRRIQEKKLLREQSIKQPTQITGLSSDKIDEMYDIFGDGHDYDWALEIENEELENGNDNNEAEEEEIDEETGAIKSTKKKISLQDIYDLEDLKKNLMTEGDMKIRKTDIPERYQELRAGITDYGNMSSEDQELERNWIAEKISVDKNFDANYDLTEFKEAIGNAIKFITKENLEVPFIYAYRRNYISSREKDGFLLTEDDLWDIVSLDIEFHSLVNKKDYVQRFYAELHIDDPIVTEYFKNQNTASIAELNSLQDIYDYLEFKYANEINEMFINHTGKTGKKHLKNSSYEKFKASPLYQAVSDIGISAEDVGENISSQHQIHPPVDHPSSKPVEVIESILNANSGDLQVFTSNTKLAIDTVQKYYSLELSKNTKIREKVRSDFSKYYLADVVLTAKGKKEIQKGSLYEDIKYAINRTPMHFRRDPDVFLKMVEAESLNLLSVKLHMSSQAQYIEHLFQIALETTNTSDIAIEWNNFRKLAFNQAMDKIFQDISQEVKDNLTKNCQKLVAKTVRHKFMTKLDQAPFIPNVRDPKIPKILSLTCGQGRFGADAIIAVYVNRKGDFIRDYKIVDNPFDKTNPEKFEDTLDNIIQSCQPNAIGINGPNPKTQKFYKRLQEVLHKKQIVDSRGHTIPIIYVEDEVAIRYQNSERAAQEFPNKPPLVKYCIALARYMHSPLLEYANLTSEEVRSLSIHPHQNLLSSEQLSWALETAFVDIVNLVSVEVNKATDNNYYASALKYISGFGKRKAIDFLQSLQRLNEPLLARQQLITHNILHKTIFMNSAGFLYISWNEKRQKYEDLEHDQLDSTRIHPEDYHLATKVAADALEYDPDTIAEKEEQGTMSEFIELLREDPDRRAKLESLNLESYAEELEKNTGLRKLNNLNTIVLELLDGFEELRNDFHPLQGDEIFQSLTGESEKTFFKGSIIPVRVERFWHNDIICTTNSEVECVVNAQRHAGAQLRRPANEIYEIGKTYPAKVIYIDYANITAEVSLLDHDVKQQYVPISYSKDPSIWDLKQELEDAEEERKLMMAEARAKRTHRVINHPYYFPFNGRQAEDYLRSKERGEFVIRQSSRGDDHLVITWKLDKDLFQHIDIQELEKENPLALGKVLIVDNQKYNDLDQIIVEYLQNKVRLLNEMTSSEKFKSGTKKDVVKFIEDYSRVNPNKSVYYFSLNHDNPGWFYLMFKINANSKLYTWNVKLTNTGYFLVNYNYPSVIQLCNGFKTLLKSNSSKNRMNNYR
B4: Rtt106 (protein, UniProt P40161 1-455)
chain: MSKLFLDELPESLSRKIGTVVRVLPSSLEIFEELYKYALNENSNDRSGRHKKPRIDVSSDLLKTDEISETNTIFKLEGVSVLSPLRKKLDLVFYLSNVDGSPVITLLKGNDRELSIYQLNKNIKMASFLPVPEKPNLIYLFMTYTSCEDNKFSEPVVMTLNKENTLNQFKNLGLLDSNVTDFEKCVEYIRKQAILTGFKISNPFVNSTLVDTDAEKINSFHLQCHRGTKEGTLYFLPDHIIFGFKKPILLFDASDIESITYSSITRLTFNASLVTKDGEKYEFSMIDQTEYAKIDDYVKRKQMKDKSMSEELKAKSKSKGQATDGTADQPSILQEATRQMQDEKKAGVFSDDDEENDQNFEAESDLSDGSGQESSDGAEDGEEAEEDDEEDDEEEDKKGQSALNRDNSFASINGQPEQELQYKEFKEPLELEDIPIEIDNDDDEDDEDGSGVEYD
B5: Hos4 (protein, UniProt P40480 1-1083)
chain: MNETTTKQPLKKRSLSSYLSNVSTRREELEKISKQETSEEEDTAGKHEQRETLSEEVSDKFPENVASFRSQTTSVHQATQNNLNAKESEDLAHKNDASSHEGEVNGDSRPDDVPETNEKISQAIRAKISSSSSSPNVRNVDIQNHQPFSRDQLRAMLKEPKRKTVDDFIEEEGLGAVEEEDLSDEVLEKNTTEPENVEKDIEYSDSDKDTDDVGSDDPTAPNSPIKLGRRKLVRGDQLDATTSSMFNNESDSELSDIDDSKNIALSSSLFRGGSSPVKETNNNLSNMNSSPAQNPKRGSVSRSNDSNKSSHIAVSKRPKQKKGIYRDSGGRTRLQIACDKGKYDVVKKMIEEGGYDINDQDNAGNTALHEAALQGHIEIVELLIENGADVNIKSIEMFGDTPLIDASANGHLDVVKYLLKNGADPTIRNAKGLTAFESVDDESEFDDEEDQKILREIKKRLSIAAKKWTNRAGIHNDKSKNGNNAHTIDQPPFDNTTKAKNEKAADSPSMASNIDEKAPEEEFYWTDVTSRAGKEKLFKASKEGHLPYVGTYVENGGKIDLRSFFESVKCGHEDITSIFLAFGFPVNQTSRDNKTSALMVAVGRGHLGTVKLLLEAGADPTKRDKKGRTALYYAKNSIMGITNSEEIQLIENAINNYLKKHSEDNNDDDDDDDNNNETYKHEKKREKTQSPILASRRSATPRIEDEEDDTRMLNLADDDFNNDRDVKESTTSDSRKRLDDNENVGTQYSLDWKKRKTNALQDEEKLKSISPLSMEPHSPKKAKSVEISKIHEETAAEREARLKEEEEYRKKRLEKKRKKEQELLQKLAEDEKKRIEEQEKQKVLEMERLEKATLEKARKMEREKEMEEISYRRAVRDLYPLGLKIINFNDKLDYKRFLPLYYFVDEKNDKFVLDLQVMILLKDIDLLSKDNQPTSEKIPVDPSHLTPLWNMLKFIFLYGGSYDDKKNNMENKRYVVNFDGVDLDTKIGYELLEYKKFVSLPMAWIKWDNVVIENHAKRKEIEGNMIQISINEFARWRNDKLNKAQQPTRKQRSLKIPRELPVKFQHRMSISSVLQQTSKEPFW

target: T1, ProteinA-Rio1 (S. cerevisiae); experiment: affinity purification with mass spectrometry; ProteinA-Rio1 expressed from PGAL1-10 (2% galactose, 2 h) in pep4∆ yeast; cleared lysate (50 mM Tris-Cl pH 7.5, 10% glycerol, 150 mM NaCl, 1 mM DTT, 0.4% NP-40) on rabbit IgG agarose beads overnight at 4 °C; washed with PBS-T; on-bead digestion …; untagged Rio1 as negative control; three independent purifications

| Molecule | binding |
| --- | --- |
| B1 | binds |
| B2 | binds |
| B3 | binds |
| B4 | binds |
| B5 | binds |

target: T1, ProteinA-Rio1 (S. cerevisiae); experiment: as above; remark: another data set of the same source

| Molecule | binding |
| --- | --- |
| Smc3 (from UniProt P47037 1-1230) | binds |
| Sir3 (from UniProt P06701 1-978) | binds |
| Sir2 (from UniProt P06700 1-562) (enzyme) | binds |
| Sin3 (from UniProt P22579 1-1536) | binds |

These are yes or no findings as the source states them, for the method shown. In cells and extracts the contact can be indirect. A yes stands for co-enrichment or nearness to the bait. Other partners may have been found.
